Results published in PubChem BioAssay AID282 (DTP/NCI, 2004).
The list does not hold the whole screen: it is rich in T/C values a quarter to a half above the control, in often repeated tests (any T/C) and in doses without a T/C. Further doses and runs are listed elsewhere. T/C: endpoint of the treated group in % of that of the vehicle group. Some entries give survivors of the animals treated and no T/C: the source files T/C as zero there, which appears to mark a toxic dose or a test without result, not a measured value. Some survivor counts are full or nearly so, which does not show that the dose was tolerated: survival well below the control is almost never listed, so the zero probably covers shortened survival too. Counts of survivors are from the toxicity check (mostly the fifth day) where no day follows; animals may have died later. Schedule codes are those of the source, taken here to give the interval after Q, in days (D) or hours (H), and the number of doses after X. Some schedule codes hold Z or #, which are not explained here. Some entries were tested several times; their values stand side by side, smallest first. Where survival is the endpoint, this PubChem deposit counts one and a half times the control or more as active, and values a quarter to a half above the control carry no call in these data; other NCI protocols may use other cut-offs.

Test system: BDF1 mice, L1210 terephthalanilide-resistant leukemia ip, survival T/C
Test: NCI In Vivo Anticancer Drug Screen. Data for tumor model L1210 Leukemia resistant to A Terephthalanilide; NSC 38280 (intraperitoneal) in B6D2F1 (BDF1) mice
Details: T/C endpoint: mean survival time, higher T/C = longer survival
Description: The antitumor activity of compounds was measured in mice bearing transplantable tumors. Survival or tumor size were measured and the results are expressed as the measurement made in the treated group (T) divided by the measurement made in the vehicle treated control group (C). The tumor model used in this assay is L1210 Leukemia resistant to A Terephthalanilide; NSC 38280 (intraperitoneal) in B6D2F1 (BDF1) mice

[1] = dose: 120.0 mg/kg/injection, schedule: Q01DX010 (ip), vehicle: saline
[2] = dose: 180.0 mg/kg/injection, schedule: Q01DX010 (ip), vehicle: saline
[3] = dose: 250.0 micrograms/kg/injection, schedule: Q01DX010 (ip), vehicle: saline
[4] = dose: 6.0 mg/kg/injection, schedule: Q01DX Z (ip), vehicle: carboxymethylcellulose (CMC)
[5] = dose: 50.0 mg/kg/injection, schedule: Q01DX Z (ip), vehicle: carboxymethylcellulose (CMC)
[6] = dose: 200.0 mg/kg/injection, schedule: Q01DX Z (ip), vehicle: carboxymethylcellulose (CMC)
[7] = dose: 6.25 mg/kg/injection, schedule: Q01DX010 (ip), vehicle: saline

## CN(C)c1ccc(Nc2c3ccccc3nc3ccccc23)cc1
[1]
  T/C: 145 % of control
[2]
  survivor count: 6 of 6

## CS(=O)(=O)OCCN(CCOS(C)(=O)=O)c1ccc(N=O)cc1
dose: 4.0 mg/kg/injection, schedule: Q01DX010 (ip), vehicle: saline
  survivor count: 4 of 6
[3]
  T/C: 135 % of control
dose: 500.0 micrograms/kg/injection, schedule: Q01DX010 (ip), vehicle: saline
  T/C: 133 % of control

## Nc1nc(N)c2nc(CNc3ccc(C(=O)NC(CCC(=O)O)C(=O)O)cc3)cnc2n1 (stereo not given)
dose: 0.2 mg/kg/injection, schedule: Q01DX010 (ip), vehicle: other
  T/C: 125 and 138 % of control

## O=C(Nc1cccc(C(=O)Nc2ccc(C3=NCCN3)cc2)c1)c1ccc(C2=NCCN2)cc1
dose: 80.0 mg/kg/injection, schedule: Q01DX010 (ip), vehicle: saline
  survivor count: 1 of 6
[1]
  survivor count: 0 of 6
[2]
  survivor count: 0 of 6

## O[C@H](CN1CC1)[C@@H](O)CN1CC1
dose: 50.0 micrograms/kg/injection, schedule: Q01DX Z (ip), vehicle: saline
  T/C: 145 % of control
dose: 100.0 micrograms/kg/injection, schedule: Q01DX Z (ip), vehicle: saline
  T/C: 141 % of control
[3]
  T/C: 127 % of control

## N[C@@H](Cc1ccc(N(CCCl)CCCl)cc1)C(=O)O
[4]
  T/C: 141 % of control
dose: 24.0 mg/kg/injection, schedule: Q01DX Z (ip), vehicle: carboxymethylcellulose (CMC)
  survivor count: 4 of 6
dose: 36.0 mg/kg/injection, schedule: Q01DX Z (ip), vehicle: carboxymethylcellulose (CMC)
  survivor count: 4 of 6

## NC(Cc1ccc(N(CCCl)CCCl)cc1)C(=O)O (stereo not given)
dose: 1.25 mg/kg/injection, schedule: Q01DX Z (ip), vehicle: carboxymethylcellulose (CMC)
  T/C: 148 % of control
dose: 3.0 mg/kg/injection, schedule: Q01DX Z (ip), vehicle: carboxymethylcellulose (CMC)
  T/C: 147 % of control
[4]
  T/C: 141 % of control
dose: 10.0 mg/kg/injection, schedule: Q01DX010 (ip), vehicle: saline
  T/C: 132 % of control
dose: 20.0 mg/kg/injection, schedule: Q01DX010 (ip), vehicle: saline
  survivor count: 5 of 6

## N#Cc1cn(C2OC(CO)C(O)C2O)c2ncnc(N)c12 (stereo not given)
[3]
  survivor count: 6 of 6

## CCn1cnc2c(=S)nc[nH]c21
[5]
  T/C: 136 % of control
[6]
  survivor count: 6 of 6
dose: 250.0 mg/kg/injection, schedule: Q01DX010 (ip), vehicle: saline
  survivor count: 3 of 6

## O=C(O)CCCc1ccc(N(CCCl)CCCl)cc1
dose: 3.13 mg/kg/injection, schedule: Q01DX010 (ip), vehicle: saline
  T/C: 97, 99, 102, 108 % of control
[7]
  T/C: 90, 95, 103, 110 % of control
dose: 12.5 mg/kg/injection, schedule: Q01DX010 (ip), vehicle: saline
  T/C: 108, 111, 113, 115 % of control
dose: 25.0 mg/kg/injection, schedule: Q01DX010 (ip), vehicle: saline
  survivor count: 2 of 6, 4 of 6, 5 of 6
dose: 25.0 mg/kg/injection, schedule: Q01DX Z (ip), vehicle: carboxymethylcellulose (CMC)
  survivor count: 4 of 6
[5]
  survivor count: 2 of 6

## C[C@H]1C(=O)O[C@@H]2CCN3CC=C(COC(=O)[C@](C)(O)[C@@]1(C)O)[C@H]23
[7]
  survivor count: 6 of 6
[6]
  T/C: 128 % of control
dose: 250.0 mg/kg/injection, schedule: Q01DX Z (ip), vehicle: carboxymethylcellulose (CMC)
  T/C: 137 % of control
dose: 300.0 mg/kg/injection, schedule: Q01DX Z (ip), vehicle: carboxymethylcellulose (CMC)
  T/C: 138 % of control
dose: 350.0 mg/kg/injection, schedule: Q01DX Z (ip), vehicle: carboxymethylcellulose (CMC)
  T/C: 143 % of control

## CCCNc1ncnc2[nH]ncc12
dose: 25.0 mg/kg/injection, schedule: Q01DX Z (ip), vehicle: saline
  T/C: 128 % of control
dose: 100.0 mg/kg/injection, schedule: Q01DX Z (ip), vehicle: saline
  survivor count: 3 of 6

## CN(C)c1ccc(/C=C\c2ccnc3ccccc23)cc1
dose: 40.0 mg/kg/injection, schedule: Q01DX010 (ip), vehicle: saline
  survivor count: 6 of 6
dose: 60.0 mg/kg/injection, schedule: Q01DX010 (ip), vehicle: saline
  survivor count: 5 of 6
dose: 75.0 mg/kg/injection, schedule: Q01DX Z (ip), vehicle: carboxymethylcellulose (CMC)
  survivor count: 6 of 6
